Measured values from patent publication US20240115537A1, “COMPOSITION FOR PREVENTING OR TREATING BREAST CANCER COMPRISING COMPOUND DERIVED FROM DENDROPANAX MORBIFERUS” (JEJU NATIONAL UNIVERSITY INDUSTRY-ACADEMIC COOPERATION …, priority 2022, published 2024).
At least one structure is not confirmed: it was looked up by name or label, or the drawing left a doubt.

Chains of the proteins cited; added tags and fusions are not shown.
UniProt P40763, whole entry: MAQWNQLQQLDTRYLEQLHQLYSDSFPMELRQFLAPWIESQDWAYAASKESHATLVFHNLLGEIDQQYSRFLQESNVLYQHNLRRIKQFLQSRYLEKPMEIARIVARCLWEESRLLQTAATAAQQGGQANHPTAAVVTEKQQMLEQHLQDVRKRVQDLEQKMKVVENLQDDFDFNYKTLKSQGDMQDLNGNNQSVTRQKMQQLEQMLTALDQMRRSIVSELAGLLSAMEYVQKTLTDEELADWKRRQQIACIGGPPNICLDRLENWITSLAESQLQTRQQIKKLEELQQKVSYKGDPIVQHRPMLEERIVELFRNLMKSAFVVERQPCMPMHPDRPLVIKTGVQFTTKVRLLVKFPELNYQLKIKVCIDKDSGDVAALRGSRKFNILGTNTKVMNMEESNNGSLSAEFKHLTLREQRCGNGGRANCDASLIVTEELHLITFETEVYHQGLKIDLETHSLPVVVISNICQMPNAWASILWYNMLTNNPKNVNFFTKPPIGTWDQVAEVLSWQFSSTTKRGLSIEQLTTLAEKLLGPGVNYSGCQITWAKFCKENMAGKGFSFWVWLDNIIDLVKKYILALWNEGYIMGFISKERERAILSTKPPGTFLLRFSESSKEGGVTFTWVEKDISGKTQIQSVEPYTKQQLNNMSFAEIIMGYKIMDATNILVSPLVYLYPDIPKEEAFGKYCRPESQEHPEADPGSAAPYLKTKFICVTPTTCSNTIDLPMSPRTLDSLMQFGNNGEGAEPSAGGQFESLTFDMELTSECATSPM

Legend:
EGFR-Stat3 complex = biological target: T1, EGFR-Stat3 complex (Homo sapiens, UniProt P00533+P40763); assay: Immunoprecipitation of Stat3 with EGFR immunoblot; type: cell-based; conditions: mammospheres
T1 construct: Protein samples of mammospheres treated with DMSO (control) or dihydroconiferyl ferulate; endogenous in cells; MDA-MB-231 or MCF-7 used elsewhere

c-Myc protein = assay: Western blot of c-Myc in mammospheres; type: cell-based, human
[1] = test system: MDA-MB-231-derived mammospheres; assay: Mammosphere growth (cell counting over 3 days); type: cell-based, human; conditions: 50 μM, counted for 3 days
MDA-MB-231 cells = assay: Cell colony formation assay; type: cell-based, human
EGFR = assay: Western blot of EGFR in mammospheres; type: cell-based, human; conditions: after 48 hours of treatment, 50 μM
p-Stat3 and Stat3 = assay: Western blot of p-Stat3 and Stat3 in mammospheres; type: cell-based, human; conditions: 48 hours
c-Myc mRNA = assay: qRT-PCR of cancer stem cell-specific markers; type: cell-based, human; conditions: MDA-MB-231-derived mammospheres; 50 μM
MCF-7 cells = assay: Cell colony formation assay; type: cell-based, human
[2] = test system: mammospheres formed from MCF-7 cells; assay: Mammosphere formation assay; type: cell-based, human; conditions: MCF-7-derived; 50 μM
[3] = test system: mammospheres formed from MDA-MB-231 cells; assay: Mammosphere formation assay; type: cell-based, human; conditions: MDA-MB-231-derived; 50 μM
[4] = test system: breast cancer stem cells (mammospheres formed from MDA-MB-231 cells); assay: Apoptosis assay (Annexin V/PI) in mammospheres; type: cell-based, human; conditions: mammospheres cultured for 5 days; 50 μM

COc1cc(/C=C/C(=O)OCCCc2ccc(O)c(OC)c2)ccc1O [dihydroconiferyl ferulate]
interaction between EGFR and Stat3 (EGFR-Stat3 complex): inhibited the interaction | nuclear level of the c-Myc protein (c-Myc protein): decreased | total level of the c-Myc protein (c-Myc protein): decreased | cell count of mammospheres / mammosphere formation [1]: reduced the cell count of mammospheres and inhibited the mammosphere formation | colony formation (MDA-MB-231 cells): inhibited colony formation | nuclear protein level of EGFR (EGFR): significantly decreased | total protein level of EGFR (EGFR): significantly decreased | level of Stat3 in the nucleus and cytoplasm of mammospheres (p-Stat3 and Stat3): reduced | level of p-Stat3 in the nucleus and cytoplasm of mammospheres (p-Stat3 and Stat3): reduced | total level of p-Stat3 (p-Stat3 and Stat3): decreased | c-Myc gene expression (mRNA level) (c-Myc mRNA): reduced c-Myc gene expression | colony formation (MCF-7 cells): inhibited colony formation | mammosphere formation (size and number of tumorspheres) [2]: reduced the size and number of tumorspheres | mammosphere formation (size and number of tumorspheres) [3]: reduced the size and number of tumorspheres | apoptosis of breast cancer stem cells [4]: induced the apoptosis
